Assay results from article PMC12561377.
Where a chain is given by its changes, count along the chain named. No constants are given. Whether binding was seen depends on the method and setting. Binding seen in cells or lysates may run through a third protein. Some results given as binding are weak or reduced against the parent protein; the word gives no strength. For some of these results: Where a sequence is shown, tags or fusion partners need not be part of it. One block for each molecule: values may come before it.

The chains behind the UniProt entries cited, without tags or fusion partners.
UniProt P11142: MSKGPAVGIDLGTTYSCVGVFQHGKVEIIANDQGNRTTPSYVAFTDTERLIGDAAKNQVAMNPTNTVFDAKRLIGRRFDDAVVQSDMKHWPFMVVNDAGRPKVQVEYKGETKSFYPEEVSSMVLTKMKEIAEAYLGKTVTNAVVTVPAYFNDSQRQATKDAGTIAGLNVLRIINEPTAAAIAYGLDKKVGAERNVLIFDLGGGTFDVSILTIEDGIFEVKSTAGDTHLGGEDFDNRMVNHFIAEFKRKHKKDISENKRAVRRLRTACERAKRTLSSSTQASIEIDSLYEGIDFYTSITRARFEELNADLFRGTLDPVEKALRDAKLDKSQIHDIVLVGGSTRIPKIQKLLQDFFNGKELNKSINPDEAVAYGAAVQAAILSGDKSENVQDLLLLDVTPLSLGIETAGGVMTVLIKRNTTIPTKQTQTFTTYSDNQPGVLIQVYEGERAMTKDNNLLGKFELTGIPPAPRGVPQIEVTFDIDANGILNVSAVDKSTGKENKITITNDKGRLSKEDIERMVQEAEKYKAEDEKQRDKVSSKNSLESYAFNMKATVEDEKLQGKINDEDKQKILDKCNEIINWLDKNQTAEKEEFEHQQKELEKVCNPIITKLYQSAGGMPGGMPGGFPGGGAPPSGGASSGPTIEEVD

Columns and labels:
[1] = biological target: T1, HDAC8 (construct transfected into 293T cells) (UniProt Q9BY41); assay: co-IP; 293T cells transfected with the indicated constructs for 24 h; RIPA lysates, magnetic beads precoated with specific antibodies, 4 °C overnight, Western blot
T1 sequence: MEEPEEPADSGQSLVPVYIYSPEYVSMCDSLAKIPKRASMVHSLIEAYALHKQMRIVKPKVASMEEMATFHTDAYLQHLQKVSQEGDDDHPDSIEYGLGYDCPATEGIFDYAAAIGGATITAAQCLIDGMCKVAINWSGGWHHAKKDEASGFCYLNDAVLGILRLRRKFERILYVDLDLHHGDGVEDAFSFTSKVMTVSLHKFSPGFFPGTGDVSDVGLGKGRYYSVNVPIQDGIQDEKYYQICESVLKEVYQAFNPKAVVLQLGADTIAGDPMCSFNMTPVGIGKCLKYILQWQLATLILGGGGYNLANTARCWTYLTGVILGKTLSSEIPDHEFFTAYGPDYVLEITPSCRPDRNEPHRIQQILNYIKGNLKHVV

[2] = biological target: T2, Flag‐HDAC8 C244S (UniProt Q9BY41); assay: co-IP; Huh7 and Hep3B cells transfected for 24 h and treated with NH4Cl for 8 h; immunoprecipitation with anti‐Flag antibody, Western blot
T2 sequence: T1 sequence with C244S

[3] = biological target: T3, histone deacetylase 8 (HDAC8) (human (endogenous in Huh7 and Hep3B)) (UniProt Q9BY41); assay: co-IP; endogenous proteins, Huh7 and Hep3B lysates in RIPA buffer; magnetic beads precoated with specific antibodies, 4 °C overnight, washed 6 times, Western blot
T3 sequence: T1 sequence

[4] = biological target: T4, GST-HDAC8 (recombinant protein of HDAC8) (UniProt Q9BY41); assay: pull-down; GST fusion protein from E. coli BL21 captured on glutathione‐agarose beads, washed, incubated with cell lysate of the other protein overnight at 4 °C; only the target purified
T4 sequence: T1 sequence

[5] = biological target: T5, zinc finger DHHC‐type palmitoyltransferase 12 (ZDHHC12) (human (endogenous in Huh7 and Hep3B)) (UniProt Q96GR4); assay: co-IP; endogenous proteins, Huh7 and Hep3B lysates in RIPA buffer; magnetic beads precoated with specific antibodies, 4 °C overnight, washed 6 times, Western blot
T5 sequence: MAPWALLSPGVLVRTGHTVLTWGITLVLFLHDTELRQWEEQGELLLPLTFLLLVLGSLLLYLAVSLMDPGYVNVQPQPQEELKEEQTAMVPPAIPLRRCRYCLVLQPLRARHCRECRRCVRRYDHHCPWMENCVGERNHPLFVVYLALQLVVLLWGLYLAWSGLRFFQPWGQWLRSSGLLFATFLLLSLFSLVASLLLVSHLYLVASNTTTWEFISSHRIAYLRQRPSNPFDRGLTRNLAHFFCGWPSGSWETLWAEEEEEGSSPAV

[6] = biological target: T5, zinc finger DHHC‐type palmitoyltransferase 12 (ZDHHC12) (human (endogenous in Huh7 and Hep3B)); assay: proximity ligation; Duolink in situ PLA in fixed and permeabilised Huh7 cells with the indicated antibodies
[7] = biological target: T6, ZDHHC12 (construct transfected into 293T cells) (UniProt Q96GR4); assay: co-IP; 293T cells transfected with the indicated constructs for 24 h; RIPA lysates, magnetic beads precoated with specific antibodies, 4 °C overnight, Western blot
T6 sequence: T5 sequence

binding [4]: binds
B1: ZDHHC12 (in the cell lysate used for the GST pull-down) (enzyme, UniProt Q96GR4 1-267)
chain: T5 sequence

binding [5]: binds | binding [6]: binds
B2: histone deacetylase 8 (HDAC8) (enzyme, UniProt Q9BY41 1-377)
chain: T1 sequence

More lines, now with the values behind:

Molecule: HSC70 (construct transfected into 293T cells) (from UniProt P11142 1-646)
binding [1]: binds

Molecule: HSC70 (from UniProt P11142 1-646)
binding [2]: binds | binding [3]: binds

B3: HDAC8 (construct transfected into 293T cells) (enzyme, UniProt Q9BY41 1-377)
chain: T1 sequence
binding [7]: binds
